# Data published in the supplement of paper PMC6411743.
# Protein sequences, listed by entry. Tags and fused reporters are not part of them. Lines headed by an entry give the natural chain unless they say otherwise; changes in a name come on top.
# UniProt Q9H0N5: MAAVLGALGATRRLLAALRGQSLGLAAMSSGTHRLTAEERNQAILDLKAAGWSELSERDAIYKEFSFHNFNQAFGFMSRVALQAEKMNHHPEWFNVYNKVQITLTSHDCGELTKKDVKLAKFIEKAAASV
# UniProt Q13485: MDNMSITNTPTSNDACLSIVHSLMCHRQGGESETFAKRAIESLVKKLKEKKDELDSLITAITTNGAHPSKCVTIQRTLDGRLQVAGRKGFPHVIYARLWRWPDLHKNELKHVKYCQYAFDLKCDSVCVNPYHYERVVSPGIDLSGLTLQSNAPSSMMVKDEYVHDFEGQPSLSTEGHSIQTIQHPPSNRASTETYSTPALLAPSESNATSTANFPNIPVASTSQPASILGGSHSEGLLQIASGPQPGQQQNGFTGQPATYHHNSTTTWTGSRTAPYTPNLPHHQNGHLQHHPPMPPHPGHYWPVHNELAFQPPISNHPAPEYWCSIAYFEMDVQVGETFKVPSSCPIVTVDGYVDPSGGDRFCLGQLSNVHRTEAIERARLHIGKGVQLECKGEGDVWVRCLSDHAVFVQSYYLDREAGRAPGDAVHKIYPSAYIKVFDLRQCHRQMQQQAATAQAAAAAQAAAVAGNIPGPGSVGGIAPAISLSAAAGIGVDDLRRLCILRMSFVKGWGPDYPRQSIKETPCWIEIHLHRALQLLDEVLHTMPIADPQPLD
# UniProt Q8TDJ6, whole entry: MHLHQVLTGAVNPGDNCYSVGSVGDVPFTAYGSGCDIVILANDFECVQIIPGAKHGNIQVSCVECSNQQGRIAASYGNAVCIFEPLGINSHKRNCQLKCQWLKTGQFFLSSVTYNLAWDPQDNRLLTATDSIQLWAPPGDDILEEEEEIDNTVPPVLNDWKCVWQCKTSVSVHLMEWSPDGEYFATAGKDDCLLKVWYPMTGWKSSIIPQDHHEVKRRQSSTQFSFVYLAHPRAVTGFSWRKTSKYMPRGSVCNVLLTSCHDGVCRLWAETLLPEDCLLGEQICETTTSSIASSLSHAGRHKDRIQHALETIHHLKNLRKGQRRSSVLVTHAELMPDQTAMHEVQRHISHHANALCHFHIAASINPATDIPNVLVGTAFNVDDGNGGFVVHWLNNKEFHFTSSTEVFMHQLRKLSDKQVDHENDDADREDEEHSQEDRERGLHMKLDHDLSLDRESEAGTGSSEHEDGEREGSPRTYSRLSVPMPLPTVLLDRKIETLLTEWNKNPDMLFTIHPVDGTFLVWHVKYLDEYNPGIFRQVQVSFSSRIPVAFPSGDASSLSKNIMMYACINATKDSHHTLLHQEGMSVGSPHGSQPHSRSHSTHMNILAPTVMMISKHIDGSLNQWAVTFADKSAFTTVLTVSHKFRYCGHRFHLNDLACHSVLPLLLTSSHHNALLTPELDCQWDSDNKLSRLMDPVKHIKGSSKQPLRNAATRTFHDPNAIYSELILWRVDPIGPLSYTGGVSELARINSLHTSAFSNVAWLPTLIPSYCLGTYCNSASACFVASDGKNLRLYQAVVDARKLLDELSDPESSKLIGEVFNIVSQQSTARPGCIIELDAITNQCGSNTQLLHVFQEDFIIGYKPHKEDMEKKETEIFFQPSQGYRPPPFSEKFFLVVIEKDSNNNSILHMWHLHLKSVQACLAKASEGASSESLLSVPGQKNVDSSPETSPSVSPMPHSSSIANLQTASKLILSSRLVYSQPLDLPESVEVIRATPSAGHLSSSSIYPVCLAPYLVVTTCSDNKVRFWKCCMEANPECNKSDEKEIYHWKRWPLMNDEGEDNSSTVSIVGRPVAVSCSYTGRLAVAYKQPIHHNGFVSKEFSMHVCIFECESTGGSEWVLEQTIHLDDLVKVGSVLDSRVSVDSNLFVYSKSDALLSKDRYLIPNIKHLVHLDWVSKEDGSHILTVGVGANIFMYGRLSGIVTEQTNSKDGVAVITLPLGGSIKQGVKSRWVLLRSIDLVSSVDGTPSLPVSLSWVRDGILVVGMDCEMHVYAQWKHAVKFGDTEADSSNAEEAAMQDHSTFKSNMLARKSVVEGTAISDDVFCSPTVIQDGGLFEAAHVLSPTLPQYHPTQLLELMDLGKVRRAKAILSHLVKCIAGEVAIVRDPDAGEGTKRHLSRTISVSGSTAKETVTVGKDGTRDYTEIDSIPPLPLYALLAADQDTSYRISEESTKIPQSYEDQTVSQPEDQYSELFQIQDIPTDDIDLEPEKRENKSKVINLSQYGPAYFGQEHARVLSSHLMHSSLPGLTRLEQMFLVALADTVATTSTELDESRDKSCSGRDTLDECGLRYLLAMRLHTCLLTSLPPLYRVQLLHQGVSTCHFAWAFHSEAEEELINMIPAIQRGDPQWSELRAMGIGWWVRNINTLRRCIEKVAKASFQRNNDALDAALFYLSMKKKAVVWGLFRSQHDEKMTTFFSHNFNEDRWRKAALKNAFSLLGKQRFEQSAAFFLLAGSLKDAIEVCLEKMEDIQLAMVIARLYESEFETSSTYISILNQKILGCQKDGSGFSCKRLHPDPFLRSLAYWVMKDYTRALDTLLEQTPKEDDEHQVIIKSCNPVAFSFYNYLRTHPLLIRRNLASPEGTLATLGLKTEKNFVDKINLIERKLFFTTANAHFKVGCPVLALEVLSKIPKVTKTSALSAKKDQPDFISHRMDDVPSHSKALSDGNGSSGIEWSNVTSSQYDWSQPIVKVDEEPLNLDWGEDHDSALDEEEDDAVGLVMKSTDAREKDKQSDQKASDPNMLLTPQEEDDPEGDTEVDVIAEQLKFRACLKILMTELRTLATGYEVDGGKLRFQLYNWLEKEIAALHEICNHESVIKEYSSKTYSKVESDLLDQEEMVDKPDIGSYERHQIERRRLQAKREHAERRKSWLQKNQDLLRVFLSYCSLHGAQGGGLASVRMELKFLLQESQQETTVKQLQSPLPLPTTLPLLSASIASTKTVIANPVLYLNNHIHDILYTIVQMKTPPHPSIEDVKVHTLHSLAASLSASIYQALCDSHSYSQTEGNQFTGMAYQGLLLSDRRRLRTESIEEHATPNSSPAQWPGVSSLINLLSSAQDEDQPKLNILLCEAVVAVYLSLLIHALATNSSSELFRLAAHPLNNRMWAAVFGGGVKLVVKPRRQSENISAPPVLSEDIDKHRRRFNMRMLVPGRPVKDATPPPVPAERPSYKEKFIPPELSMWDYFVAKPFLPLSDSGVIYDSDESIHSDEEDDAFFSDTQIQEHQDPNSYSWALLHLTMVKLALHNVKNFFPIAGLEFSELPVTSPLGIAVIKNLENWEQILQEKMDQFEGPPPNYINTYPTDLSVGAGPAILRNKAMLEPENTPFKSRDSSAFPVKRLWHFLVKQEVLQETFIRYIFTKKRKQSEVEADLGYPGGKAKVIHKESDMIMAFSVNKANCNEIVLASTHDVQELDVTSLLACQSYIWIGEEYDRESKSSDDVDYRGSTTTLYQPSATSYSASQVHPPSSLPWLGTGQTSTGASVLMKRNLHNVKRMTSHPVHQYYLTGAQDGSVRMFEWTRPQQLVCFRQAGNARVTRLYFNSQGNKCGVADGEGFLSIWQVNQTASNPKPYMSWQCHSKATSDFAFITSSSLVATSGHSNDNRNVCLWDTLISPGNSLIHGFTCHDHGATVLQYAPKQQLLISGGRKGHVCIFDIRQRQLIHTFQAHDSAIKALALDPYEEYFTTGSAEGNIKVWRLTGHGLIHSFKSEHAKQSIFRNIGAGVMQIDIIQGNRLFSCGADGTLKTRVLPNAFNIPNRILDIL
# UniProt Q08722, whole entry: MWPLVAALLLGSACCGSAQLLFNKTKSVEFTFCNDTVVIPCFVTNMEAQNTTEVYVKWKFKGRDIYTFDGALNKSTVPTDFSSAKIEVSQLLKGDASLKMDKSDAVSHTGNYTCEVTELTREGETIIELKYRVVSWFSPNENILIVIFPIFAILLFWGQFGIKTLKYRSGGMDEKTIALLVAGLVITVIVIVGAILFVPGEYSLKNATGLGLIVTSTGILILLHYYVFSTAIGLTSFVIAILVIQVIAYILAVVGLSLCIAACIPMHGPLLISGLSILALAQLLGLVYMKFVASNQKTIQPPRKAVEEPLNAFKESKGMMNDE
# UniProt P28676: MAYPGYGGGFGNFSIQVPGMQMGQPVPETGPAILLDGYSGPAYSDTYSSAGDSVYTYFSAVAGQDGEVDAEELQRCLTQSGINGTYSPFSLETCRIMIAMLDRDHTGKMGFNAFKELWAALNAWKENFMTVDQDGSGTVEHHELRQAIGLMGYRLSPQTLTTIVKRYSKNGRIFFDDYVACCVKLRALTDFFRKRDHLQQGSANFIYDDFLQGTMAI
# UniProt P78364: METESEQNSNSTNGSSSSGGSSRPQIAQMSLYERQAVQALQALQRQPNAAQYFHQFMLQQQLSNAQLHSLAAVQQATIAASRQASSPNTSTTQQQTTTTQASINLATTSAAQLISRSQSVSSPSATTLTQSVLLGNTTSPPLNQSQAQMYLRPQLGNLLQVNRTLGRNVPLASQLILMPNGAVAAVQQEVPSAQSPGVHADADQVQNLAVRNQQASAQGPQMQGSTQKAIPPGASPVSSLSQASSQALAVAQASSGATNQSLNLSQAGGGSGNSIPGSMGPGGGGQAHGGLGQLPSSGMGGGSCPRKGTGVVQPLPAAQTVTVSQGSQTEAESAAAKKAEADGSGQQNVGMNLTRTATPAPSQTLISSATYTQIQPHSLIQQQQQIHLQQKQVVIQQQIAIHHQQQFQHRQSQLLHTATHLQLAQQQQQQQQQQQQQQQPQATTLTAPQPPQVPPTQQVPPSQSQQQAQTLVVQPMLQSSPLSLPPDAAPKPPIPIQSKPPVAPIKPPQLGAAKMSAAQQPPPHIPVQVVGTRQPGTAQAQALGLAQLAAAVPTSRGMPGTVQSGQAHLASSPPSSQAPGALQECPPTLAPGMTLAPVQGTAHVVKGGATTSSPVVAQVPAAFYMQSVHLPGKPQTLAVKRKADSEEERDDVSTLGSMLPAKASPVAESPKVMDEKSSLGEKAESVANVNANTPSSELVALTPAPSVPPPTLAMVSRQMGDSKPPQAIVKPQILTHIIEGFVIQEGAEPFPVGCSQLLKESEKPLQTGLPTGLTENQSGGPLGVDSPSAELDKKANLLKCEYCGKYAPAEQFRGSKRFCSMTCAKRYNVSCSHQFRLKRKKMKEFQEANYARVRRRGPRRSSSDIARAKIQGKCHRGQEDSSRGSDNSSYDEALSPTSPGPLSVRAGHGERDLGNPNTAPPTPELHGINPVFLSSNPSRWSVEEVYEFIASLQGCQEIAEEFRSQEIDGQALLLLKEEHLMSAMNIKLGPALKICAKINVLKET
# UniProt P02686, whole entry: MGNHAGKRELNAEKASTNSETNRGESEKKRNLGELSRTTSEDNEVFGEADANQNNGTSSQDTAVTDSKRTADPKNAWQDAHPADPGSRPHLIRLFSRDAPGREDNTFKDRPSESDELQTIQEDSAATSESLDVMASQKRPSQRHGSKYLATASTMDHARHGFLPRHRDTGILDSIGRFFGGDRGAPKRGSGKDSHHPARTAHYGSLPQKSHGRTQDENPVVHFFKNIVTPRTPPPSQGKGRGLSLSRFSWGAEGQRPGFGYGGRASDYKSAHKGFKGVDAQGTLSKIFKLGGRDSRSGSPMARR
# UniProt O14641: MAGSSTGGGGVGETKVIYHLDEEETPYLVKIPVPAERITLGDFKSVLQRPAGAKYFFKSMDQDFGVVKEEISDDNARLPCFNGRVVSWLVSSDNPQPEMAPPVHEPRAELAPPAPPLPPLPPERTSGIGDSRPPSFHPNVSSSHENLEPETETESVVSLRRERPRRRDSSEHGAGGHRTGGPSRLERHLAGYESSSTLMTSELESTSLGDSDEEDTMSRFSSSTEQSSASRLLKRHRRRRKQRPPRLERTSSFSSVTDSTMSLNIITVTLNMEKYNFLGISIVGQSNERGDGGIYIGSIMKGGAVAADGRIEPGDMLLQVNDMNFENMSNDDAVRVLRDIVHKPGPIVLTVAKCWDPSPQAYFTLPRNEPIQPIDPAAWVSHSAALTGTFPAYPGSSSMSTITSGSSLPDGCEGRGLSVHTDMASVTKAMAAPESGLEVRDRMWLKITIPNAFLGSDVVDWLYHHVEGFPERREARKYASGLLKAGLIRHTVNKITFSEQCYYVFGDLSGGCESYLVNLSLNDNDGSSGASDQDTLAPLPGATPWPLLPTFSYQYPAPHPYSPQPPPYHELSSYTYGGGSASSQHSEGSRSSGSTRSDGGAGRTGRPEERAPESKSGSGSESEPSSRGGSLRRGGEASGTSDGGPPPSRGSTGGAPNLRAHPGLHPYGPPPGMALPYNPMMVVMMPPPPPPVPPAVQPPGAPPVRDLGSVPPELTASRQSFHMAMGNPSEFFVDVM
# UniProt Q5J8M3, whole entry: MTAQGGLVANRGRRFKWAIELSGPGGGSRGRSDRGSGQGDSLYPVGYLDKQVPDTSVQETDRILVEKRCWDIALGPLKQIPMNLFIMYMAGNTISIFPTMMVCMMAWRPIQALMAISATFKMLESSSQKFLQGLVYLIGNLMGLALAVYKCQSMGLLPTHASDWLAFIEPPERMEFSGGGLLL
# ± gives the standard deviation of the averaged measurements. Only a part is listed here, and it is no random draw.
# Compound: Nc1ncnc2c1ncn2[C@@H]1O[C@H](COP(=O)(O)OP(=O)(O)OP(=O)(O)O)[C@@H](O)[C@H]1O [adenosine triphosphate]
# Assay: NP40-soluble protein abundance relative to vehicle (solubility fold change) (ratio); higher = more soluble protein in presence of ATP
# Summary of the method: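 Each value is a fold change relative to the detergent-processed vehicle, calculated per replicate from vsn-normalised intensities. Jurkat crude lysate received eight concentrations (0.1 to 10 mM) for 10 min at room temperature and 3 min at 37 °C, then was solubilised in 0.8% NP40 with benzonase (60 min, 4 °C). The ultracentrifuged supernatant was TMT-labelled and run by LC-MS/MS in three independent experiments.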
Target,NP40-soluble protein abundance (concentration: 1mM),NP40-soluble protein abundance (concentration: 2mM),NP40-soluble protein abundance (concentration: 4mM),NP40-soluble protein abundance (concentration: 6mM),NP40-soluble protein abundance (concentration: 8mM),NP40-soluble protein abundance (concentration: 10mM)
H0Y9X1 and related entries (UniProt Q96EY4),0.932 ± 0.1,0.943 ± 0.052,1.02 ± 0.09,1.22 ± 0.085,1.28 ± 0.062,1.41 ± 0.085
J3KNP4 and related entries (UniProt Q9NPR2),0.98 ± 0.072,0.969 ± 0.046,0.964 ± 0.074,0.957 ± 0.047,0.89 ± 0.051,0.944 ± 0.1
H7C560 and related entries (UniProt P15056),1.06 ± 0.041,1.06 ± 0.027,1.01 ± 0.059,1.02 ± 0.045,1.05 ± 0.058,1.01 ± 0.083
H0YA52 and related entries (UniProt Q9H0N5),0.994 ± 0.083,1 ± 0.045,1.02 ± 0.06,1.06 ± 0.1,1.07 ± 0.082,1.01 ± 0.13
J3QQJ0 and related entries (UniProt Q9UHR5),0.905 ± 0.011,0.88 ± 0.027,0.808 ± 0.024,0.832 ± 0.019,0.759 ± 0.043,0.768 ± 0.045
J3KMZ7 and related entries (UniProt Q9H0H0),1.1 ± 0.082,1.04 ± 0.13,1.09 ± 0.12,1.09 ± 0.2,1.11 ± 0.18,1.18 ± 0.18
K7ER95 and related entries (UniProt Q92918),1.02 ± 0.021,1.02 ± 0.025,1.01 ± 0.029,0.962 ± 0.055,1 ± 0.02,1.012 ± 0.009
H3BM14 and related entries (UniProt Q9Y5A7),0.989 ± 0.035,0.986 ± 0.05,0.991 ± 0.051,0.946 ± 0.081,0.942 ± 0.063,0.975 ± 0.034
K7EQ55 and related entries (UniProt Q96EP5),0.972 ± 0.047,1.01 ± 0.023,0.981 ± 0.033,0.979 ± 0.033,0.956 ± 0.03,0.9699 ± 0.0081
I3L0K9 and related entries (UniProt Q15027),1.03 ± 0.095,1.03 ± 0.089,1.01 ± 0.057,0.959 ± 0.11,1.01 ± 0.036,1.01 ± 0.061
K7EIU8 and related entries (UniProt Q13485),1 ± 0.086,0.986 ± 0.039,0.943 ± 0.015,0.9 ± 0.095,0.968 ± 0.069,1 ± 0.035
H0YLM8 and related entries (UniProt Q8TDJ6),0.965 ± 0.069,0.938 ± 0.061,0.97 ± 0.031,0.933 ± 0.091,0.993 ± 0.049,1.01 ± 0.13
H0YC40 and related entries (UniProt Q08722),0.909 ± 0.023,0.886 ± 0.035,0.905 ± 0.045,0.925 ± 0.015,0.872 ± 0.043,0.835 ± 0.078
J3QT87 and related entries (UniProt Q96SW2),0.952 ± 0.09,0.933 ± 0.064,0.927 ± 0.11,0.85 ± 0.13,0.947 ± 0.046,0.935 ± 0.021
H7BXD5 and related entries (UniProt P28676),0.917 ± 0.06,0.968 ± 0.056,0.944 ± 0.03,0.835 ± 0.065,0.92 ± 0.042,0.942 ± 0.029
J3KQH6 and related entries (UniProt P78364),0.949 ± 0.032,0.992 ± 0.084,0.999 ± 0.026,1.14 ± 0.13,1.04 ± 0.045,1.18 ± 0.043
J3QRU1 and related entries (UniProt P07947),0.995 ± 0.13,1.01 ± 0.12,1.04 ± 0.11,0.997 ± 0.18,0.983 ± 0.11,1.01 ± 0.066
G5E9V6 and related entries (UniProt Q8IUR7),0.983 ± 0.04,0.927 ± 0.012,0.938 ± 0.023,0.887 ± 0.065,0.951 ± 0.051,0.953 ± 0.063
J3QQK6 and related entries (UniProt P02686),0.772 ± 0.07,0.771 ± 0.027,0.746 ± 0.058,0.731 ± 0.049,0.686 ± 0.025,0.668 ± 0.078
I3L4C2 and related entries (UniProt Q9UQB8),0.9602 ± 0.0035,0.93 ± 0.036,0.9393 ± 0.0064,0.959 ± 0.051,0.875 ± 0.05,0.918 ± 0.021
I3L2C7 and related entries (UniProt P57678),1.06 ± 0.07,0.984 ± 0.032,0.93 ± 0.058,0.854 ± 0.031,1.05 ± 0.1,1.01 ± 0.12
H7C096 and related entries (UniProt Q12982),0.828 ± 0.15,0.818 ± 0.12,0.782 ± 0.13,0.759 ± 0.16,0.745 ± 0.15,0.703 ± 0.2
I3L0U5 and related entries (UniProt Q6PK04),0.887 ± 0.16,0.869 ± 0.13,0.93 ± 0.073,1 ± 0.093,1.03 ± 0.071,1.06 ± 0.11
I3L2N2 and related entries (UniProt O14641),0.966 ± 0.059,0.973 ± 0.043,0.969 ± 0.04,1.01 ± 0.06,0.934 ± 0.031,0.967 ± 0.029
H7BYJ1 and related entries (UniProt Q969K3),0.952 ± 0.023,0.922 ± 0.047,0.948 ± 0.067,0.928 ± 0.037,0.919 ± 0.044,0.915 ± 0.075
H7BYP4 and related entries (UniProt Q9H930),0.944 ± 0.09,0.959 ± 0.19,1 ± 0.014,0.97 ± 0.037,0.968 ± 0.081,0.985 ± 0.14
UniProt H7C1Q1,1.03 ± 0.014,1.026 ± 0.006,1.06 ± 0.018,1.01 ± 0.13,0.943 ± 0.057,1.07 ± 0.032
H0YK61 and related entries (UniProt Q5J8M3),1.03 ± 0.12,0.959 ± 0.07,0.955 ± 0.073,0.981 ± 0.054,0.966 ± 0.12,1 ± 0.081
M0QWZ7 and related entries (UniProt Q9NP81),0.976 ± 0.055,0.995 ± 0.05,0.976 ± 0.076,0.991 ± 0.059,0.992 ± 0.058,0.968 ± 0.043
H9KV77 and related entries (UniProt Q9NQ92),0.985 ± 0.22,0.893 ± 0.093,0.927 ± 0.13,0.845 ± 0.085,0.967 ± 0.087,0.886 ± 0.021

# Single values from the entries so far:
# K7EIU8 and related entries (UniProt Q13485) | NP40-soluble protein abundance (concentration: 10mM): 1 ± 0.035
# J3QRU1 and related entries (UniProt P07947) | NP40-soluble protein abundance (concentration: 4mM): 1.04 ± 0.11
